PubChem BioAssay AID1053208 | Peter MacCallum Cancer Centre | 2014
Shown is one part, drawn at random, of about 17,000 reagents. Of all reagents, 788 (4.7%) were called active. 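Calls rest on z-score classes alone; an extra cut-off of viability at most 70% of control was not applied to them.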 Reagents against one gene are numbered here.

Screen: 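Synthetic lethal interactions between gene loss and doxorubicin in osteosarcoma cells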 (primary screen)
System: mouse osteosarcoma cells, early-passage culture from an engineered mouse model of fibroblastic bone tumour
Reagent: siRNA pool against mouse genes, 40 nM
Timing: about 120 h (48 h before drug, then 72 h with drug)
Treatment: doxorubicin 100 nM for 72 h, roughly 30-40% inhibitory dose
Measured: 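Luminescent ATP signal taken as viability with or without 100 nM doxorubicin for 72 h; mean of two wells set against non-targeting siRNA and turned into robust z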
Direction: viability z-score with doxorubicin and doxorubicin viability vs non-targeting: higher = more viable cells under doxorubicin; viability z-score without drug: higher = more viable cells with knock-down alone; z-score of drug to no-drug ratio: higher = less drug sensitisation by knock-down
Call rule: 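a pool counts as active when its viability z-score with doxorubicin is -2 or below and its z-score without drug lies between -2 and 2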

target | reagent no. | combined z-score class | viability z-score with doxorubicin | viability z-score without drug | z-score of drug to no-drug ratio | doxorubicin viability vs non-targeting | Call
Mpp3 | 1 | no change with or without drug | 0 | 1.85 | -1.01 | 0.94 | inactive
4930583K01Rik | 1 | no change with or without drug | -1.69 | -1.69 | -0.56 | 0.79 | inactive
Tmem209 | 1 | no change with or without drug | 0.45 | 0.17 | 0.45 | 0.98 | inactive
Egr3 | 1 | no change with or without drug | -0.9 | 0.84 | -1.35 | 0.86 | inactive
Kcnn3 | 1 | no change with or without drug | 0 | -0.84 | 0.67 | 0.94 | inactive
Selenow | 1 | no change with or without drug | 0.67 | 0.34 | 0.56 | 1 | inactive
B4galt5 | 1 | no change with or without drug | 0.56 | 1.18 | -0.11 | 0.99 | inactive
Ntn4 | 1 | no change with or without drug | 0.34 | -0.17 | 0.56 | 0.97 | inactive
Sult1c2 | 1 | no change with or without drug | 0.67 | 0.17 | 0.67 | 1 | inactive
Tspan32 | 1 | no change with or without drug | 1.57 | 0.51 | 1.35 | 1.08 | inactive
Stx1a | 1 | no change with or without drug | 0 | 0.67 | -0.34 | 0.94 | inactive
Xcr1 | 1 | no change with or without drug | -0.22 | 0.17 | -0.22 | 0.92 | inactive
Nop16 | 1 | no change with or without drug | 0 | 0.17 | 0 | 0.94 | inactive
Il1rl2 | 1 | no change with or without drug | -0.79 | 0.51 | -1.01 | 0.87 | inactive
Thap4 | 1 | high cell count without drug only | -0.45 | 2.02 | -1.57 | 0.9 | inactive
Mrm2 | 1 | no change with or without drug | 0.9 | 0.34 | 0.79 | 1.02 | inactive
Krt25 | 1 | no change with or without drug | 1.24 | -1.01 | 2.25 | 1.05 | inactive
Ccnc | 1 | no change with or without drug | 0.56 | -0.17 | 0.79 | 0.99 | inactive
Pnck | 1 | low cell count with doxorubicin only | -3.37 | 1.18 | -3.93 | 0.64 | active
Pcdh18 | 1 | no change with or without drug | 1.24 | 0.17 | 1.24 | 1.05 | inactive
Gapdh | 1 | no change with or without drug | -1.12 | -0.34 | -0.9 | 0.84 | inactive
Gapdh | 2 | low cell count without drug only | -1.35 | -2.02 | 0.11 | 0.82 | inactive
Arhgap29 | 1 | low cell count with doxorubicin only | -2.02 | -0.17 | -1.91 | 0.76 | active
Sftpd | 1 | no change with or without drug | -0.22 | -0.34 | 0.11 | 0.92 | inactive
Or10aa1 | 1 | no change with or without drug | 0.9 | -0.84 | 1.69 | 1.02 | inactive
Tfec | 1 | no change with or without drug | 0.22 | 0.34 | 0.11 | 0.96 | inactive
Ski | 1 | no change with or without drug | -1.8 | -0.84 | -1.24 | 0.78 | inactive
Gpr22 | 1 | high cell count without drug only | 0 | 2.19 | -1.24 | 0.94 | inactive
Pik3c2g | 1 | no change with or without drug | -0.67 | -1.18 | 0.22 | 0.88 | inactive
Rgs1 | 1 | no change with or without drug | 0.22 | 1.52 | -0.67 | 0.96 | inactive
Scgb1b27 | 1 | no change with or without drug | -0.45 | -0.51 | 0 | 0.9 | inactive
Zmynd10 | 1 | no change with or without drug | -1.35 | -0.51 | -1.01 | 0.82 | inactive
Gprin1 | 1 | no change with or without drug | 0 | 0.34 | -0.11 | 0.94 | inactive
Wdr76 | 1 | no change with or without drug | 0.67 | 0.51 | 0.45 | 1 | inactive
Vmn2r29 | 1 | no change with or without drug | 0 | -0.17 | 0.22 | 0.94 | inactive
Klk1b21 | 1 | no change with or without drug | -0.34 | -0.51 | 0.11 | 0.91 | inactive
Dnah1 | 1 | no change with or without drug | 0.22 | -0.51 | 0.67 | 0.96 | inactive
Dnah1 | 2 | no change with or without drug | -0.22 | 0.67 | -0.56 | 0.92 | inactive
Sec14l2 | 1 | no change with or without drug | -1.24 | -0.51 | -0.9 | 0.83 | inactive
Serpina3b | 1 | high cell count with and without drug | 4.05 | 2.87 | 2.02 | 1.3 | inactive
Rnf227 | 1 | no change with or without drug | 0.11 | 0.51 | -0.11 | 0.95 | inactive
Crem | 1 | no change with or without drug | 1.91 | -0.17 | 2.25 | 1.11 | inactive
Inha | 1 | no change with or without drug | -0.11 | 0.51 | -0.34 | 0.93 | inactive
Trpc4ap | 1 | no change with or without drug | -1.12 | -0.84 | -0.56 | 0.84 | inactive
Col27a1 | 1 | no change with or without drug | -0.22 | 1.18 | -0.9 | 0.92 | inactive
Nr1h5 | 1 | no change with or without drug | 0.34 | 0 | 0.45 | 0.97 | inactive
Lrrc4 | 1 | no change with or without drug | -0.45 | -1.18 | 0.45 | 0.9 | inactive
Acat3 | 1 | no change with or without drug | 0.67 | -0.84 | 1.46 | 1 | inactive
Cmpk2 | 1 | no change with or without drug | -0.9 | -1.18 | 0 | 0.86 | inactive
Ncs1 | 1 | no change with or without drug | 0.11 | -0.17 | 0.34 | 0.95 | inactive

4 of these entries, set out differently:
Tfec → combined z-score class: no change with or without drug; viability z-score with doxorubicin: 0.22; viability z-score without drug: 0.34; z-score of drug to no-drug ratio: 0.11; doxorubicin viability vs non-targeting: 0.96; Call: inactive
Ski → combined z-score class: no change with or without drug; viability z-score with doxorubicin: -1.8; viability z-score without drug: -0.84; z-score of drug to no-drug ratio: -1.24; doxorubicin viability vs non-targeting: 0.78; Call: inactive
Gpr22 → combined z-score class: high cell count without drug only; viability z-score with doxorubicin: 0; viability z-score without drug: 2.19; z-score of drug to no-drug ratio: -1.24; doxorubicin viability vs non-targeting: 0.94; Call: inactive
Pik3c2g → combined z-score class: no change with or without drug; viability z-score with doxorubicin: -0.67; viability z-score without drug: -1.18; z-score of drug to no-drug ratio: 0.22; doxorubicin viability vs non-targeting: 0.88; Call: inactive
